These results are taken from publication PMC9501056.

Results are given in words; binding and its absence hold for the method and conditions named. Binding seen in cells or lysates may run through a third protein. Some binding calls cover weakened binding; strength is not graded here.

The target in assay [1] is T1, BEI (Oryza sativa subsp. indica cv. IR36 (endogenous in developing seeds)) (UniProt Q01401).
T1 sequence: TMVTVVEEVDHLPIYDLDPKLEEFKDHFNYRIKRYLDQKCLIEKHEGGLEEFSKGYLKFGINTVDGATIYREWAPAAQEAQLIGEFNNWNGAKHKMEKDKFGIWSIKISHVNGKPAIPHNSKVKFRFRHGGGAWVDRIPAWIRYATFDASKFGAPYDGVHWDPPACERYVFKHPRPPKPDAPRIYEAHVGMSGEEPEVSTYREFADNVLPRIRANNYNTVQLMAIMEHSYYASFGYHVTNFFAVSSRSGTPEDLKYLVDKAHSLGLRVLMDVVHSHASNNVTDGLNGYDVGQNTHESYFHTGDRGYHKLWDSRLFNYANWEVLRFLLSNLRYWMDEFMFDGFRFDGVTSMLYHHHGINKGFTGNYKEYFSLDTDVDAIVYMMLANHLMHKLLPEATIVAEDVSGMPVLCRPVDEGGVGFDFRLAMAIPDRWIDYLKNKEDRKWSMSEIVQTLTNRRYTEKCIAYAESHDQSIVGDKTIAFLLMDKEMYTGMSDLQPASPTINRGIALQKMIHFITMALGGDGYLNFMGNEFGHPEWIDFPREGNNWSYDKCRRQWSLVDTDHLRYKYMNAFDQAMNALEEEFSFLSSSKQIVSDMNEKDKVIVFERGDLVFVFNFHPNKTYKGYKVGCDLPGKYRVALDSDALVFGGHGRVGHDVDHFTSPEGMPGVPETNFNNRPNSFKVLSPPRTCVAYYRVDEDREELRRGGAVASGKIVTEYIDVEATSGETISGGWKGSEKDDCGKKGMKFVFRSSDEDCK
Nature of the assay: co-IP; soluble proteins of developing seeds of WT (IR36) at 10 DAF incubated with isozyme-specific antibodies and protein A magnetic beads; washed with PBS pH 7.4; Western blotting. Background: Immunoblotting shows a protein as a band on a membrane.

Assay [2] deals with T1, BEI (Oryza sativa subsp. indica cv. IR36 (endogenous in developing seeds)). Nature of the assay: co-IP; soluble proteins of developing seeds of WT (IR36) at 5 DAF incubated with isozyme-specific antibodies and protein A magnetic beads; washed with PBS pH 7.4; Western blotting.
Assay [3] has the same target. As to the kind of experiment: co-IP; soluble proteins of developing seeds of WT (IR36) at 15 DAF incubated with isozyme-specific antibodies and protein A magnetic beads; washed with PBS pH 7.4; Western blotting.
Assay [4] has the same target. As to the kind of experiment: co-IP; soluble proteins of developing seeds of the be2b mutant at 5 DAF incubated with isozyme-specific antibodies and protein A magnetic beads; washed with PBS pH 7.4; Western blotting.
Substrate in assay [5]: T2, SSI (Oryza sativa subsp. indica cv. IR36 (endogenous in developing seeds)) (UniProt A2Y9M4)
T2 sequence: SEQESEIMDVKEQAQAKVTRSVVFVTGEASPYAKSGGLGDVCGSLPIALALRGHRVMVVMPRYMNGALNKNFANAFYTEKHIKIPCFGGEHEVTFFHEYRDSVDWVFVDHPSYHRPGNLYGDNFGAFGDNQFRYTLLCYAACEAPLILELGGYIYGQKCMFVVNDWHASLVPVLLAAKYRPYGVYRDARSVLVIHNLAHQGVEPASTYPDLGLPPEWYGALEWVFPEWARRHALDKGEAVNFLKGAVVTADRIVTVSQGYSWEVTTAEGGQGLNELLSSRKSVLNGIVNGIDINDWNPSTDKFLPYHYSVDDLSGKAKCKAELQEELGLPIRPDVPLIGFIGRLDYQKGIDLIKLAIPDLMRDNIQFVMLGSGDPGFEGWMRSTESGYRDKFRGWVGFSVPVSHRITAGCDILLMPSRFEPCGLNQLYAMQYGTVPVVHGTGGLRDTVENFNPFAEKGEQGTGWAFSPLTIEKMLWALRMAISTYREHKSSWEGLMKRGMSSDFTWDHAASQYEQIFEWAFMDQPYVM
As to the kind of experiment: co-IP; soluble proteins of developing seeds of WT (IR36) at 10 DAF incubated with isozyme-specific antibodies and protein A magnetic beads; washed with PBS pH 7.4; Western blotting.

Substrate in assay [6]: T2, 
As to the kind of experiment: co-IP; soluble proteins of developing seeds of WT (IR36) at 15 DAF incubated with isozyme-specific antibodies and protein A magnetic beads; washed with PBS pH 7.4; Western blotting.

The target in assay [7] is T3, SSIIa (Oryza sativa subsp. indica cv. IR36 (endogenous in developing seeds)) (UniProt P0C586).
T3 sequence: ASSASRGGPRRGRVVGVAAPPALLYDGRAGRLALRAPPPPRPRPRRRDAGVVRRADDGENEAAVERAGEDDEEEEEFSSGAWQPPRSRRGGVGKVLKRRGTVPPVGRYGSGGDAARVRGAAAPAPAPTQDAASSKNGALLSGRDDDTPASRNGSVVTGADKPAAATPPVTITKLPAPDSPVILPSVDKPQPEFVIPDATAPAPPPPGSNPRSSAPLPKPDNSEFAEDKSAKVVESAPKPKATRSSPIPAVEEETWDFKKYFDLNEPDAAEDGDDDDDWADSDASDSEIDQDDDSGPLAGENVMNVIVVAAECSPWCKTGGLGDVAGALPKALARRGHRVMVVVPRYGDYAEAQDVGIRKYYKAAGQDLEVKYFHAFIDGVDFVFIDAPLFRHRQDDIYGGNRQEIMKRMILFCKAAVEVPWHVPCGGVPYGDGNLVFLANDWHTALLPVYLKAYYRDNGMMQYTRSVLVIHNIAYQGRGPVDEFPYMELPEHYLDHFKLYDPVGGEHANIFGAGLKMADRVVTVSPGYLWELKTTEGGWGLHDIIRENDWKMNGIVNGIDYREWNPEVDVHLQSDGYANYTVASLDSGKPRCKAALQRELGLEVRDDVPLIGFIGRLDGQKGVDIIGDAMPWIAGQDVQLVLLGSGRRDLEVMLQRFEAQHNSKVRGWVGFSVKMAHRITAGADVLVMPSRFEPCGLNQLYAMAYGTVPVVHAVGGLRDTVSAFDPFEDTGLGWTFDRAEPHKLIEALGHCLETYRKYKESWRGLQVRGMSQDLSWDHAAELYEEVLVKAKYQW
As to the kind of experiment: co-IP; soluble proteins of developing seeds of WT (IR36) at 10 DAF incubated with isozyme-specific antibodies and protein A magnetic beads; washed with PBS pH 7.4; Western blotting.

Assay [8] concerns the target T3, SSIIa (Oryza sativa subsp. indica cv. IR36 (endogenous in developing seeds)). As to the kind of experiment: co-IP; soluble proteins of developing seeds of WT (IR36) at 5 DAF incubated with isozyme-specific antibodies and protein A magnetic beads; washed with PBS pH 7.4; Western blotting.
Assay [9] shares this target. Nature of the assay: co-IP; soluble proteins of developing seeds of WT (IR36) at 15 DAF incubated with isozyme-specific antibodies and protein A magnetic beads; washed with PBS pH 7.4; Western blotting.
For assay [10] the target is unchanged. As to the kind of experiment: co-IP; soluble proteins of developing seeds of the be2b mutant at 5 DAF incubated with isozyme-specific antibodies and protein A magnetic beads; washed with PBS pH 7.4; Western blotting.
The target in assay [11] is T1, BEI (Oryza sativa subsp. indica cv. IR36 (endogenous in developing seeds)). Nature of the assay: co-IP; soluble proteins of developing seeds of the be2b mutant at 10 DAF incubated with isozyme-specific antibodies and protein A magnetic beads; washed with PBS pH 7.4; Western blotting.
The target is the same in assay [12]. As to the kind of experiment: co-IP; soluble proteins of developing seeds of the be2b mutant at 15 DAF incubated with isozyme-specific antibodies and protein A magnetic beads; washed with PBS pH 7.4; Western blotting.
For assay [13], the target named is T3, SSIIa (Oryza sativa subsp. indica cv. IR36 (endogenous in developing seeds)). The assay is described as above.
Substrate in assay [14]: T2, 
The assay is described as above.

B1: SSIIa (enzyme, UniProt P0C586 17-810)
chain: T3 sequence
Regarding B1, the binding result in assay [1] is recorded as “binds”; in assay [2] it was “binds”; in [3], “binds weakly”; in assay [4], “binds weakly”; in assay [5], “binds weakly”; in assay [6], “binds”.

B2: SSI (enzyme, UniProt A2Y9M4 114-641)
chain: T2 sequence
As for B2, the binding entry is given as “binds” in [1]; “binds weakly” in assay [7]; “binds” in assay [2]; “binds weakly” in assay [8]; “binds” in [3]; “binds” in assay [9]. Also, the binding entry in [10], in assay [11] and in [12] was “binds” in each case.

B3: BEI (enzyme, UniProt Q01401 65-820)
chain: T1 sequence
B3: the binding result in [9] was “binds weakly”; in [13] it was “binds weakly”; in assay [6] it was “binds”; in assay [14], “binds”.
